The other results are listed elsewhere or left out. Most values lie at the level of the controls, where differences are scatter.

Chains of the proteins cited; added tags and fusions are not shown. Lines headed by an entry give the natural chain unless they say otherwise; changes in a name come on top.
UniProt P58544: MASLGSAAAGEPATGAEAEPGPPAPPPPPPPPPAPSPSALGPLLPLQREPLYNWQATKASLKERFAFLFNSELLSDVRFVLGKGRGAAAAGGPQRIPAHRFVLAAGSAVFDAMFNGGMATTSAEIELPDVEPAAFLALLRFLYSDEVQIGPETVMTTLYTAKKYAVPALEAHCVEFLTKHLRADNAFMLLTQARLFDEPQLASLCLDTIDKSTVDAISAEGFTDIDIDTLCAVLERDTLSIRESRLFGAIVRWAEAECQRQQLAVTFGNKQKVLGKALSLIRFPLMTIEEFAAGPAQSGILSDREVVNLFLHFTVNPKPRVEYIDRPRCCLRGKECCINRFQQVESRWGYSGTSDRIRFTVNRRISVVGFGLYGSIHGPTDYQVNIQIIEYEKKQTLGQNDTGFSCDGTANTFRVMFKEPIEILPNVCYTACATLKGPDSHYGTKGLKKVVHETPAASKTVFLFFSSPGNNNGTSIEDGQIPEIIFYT
UniProt P58137: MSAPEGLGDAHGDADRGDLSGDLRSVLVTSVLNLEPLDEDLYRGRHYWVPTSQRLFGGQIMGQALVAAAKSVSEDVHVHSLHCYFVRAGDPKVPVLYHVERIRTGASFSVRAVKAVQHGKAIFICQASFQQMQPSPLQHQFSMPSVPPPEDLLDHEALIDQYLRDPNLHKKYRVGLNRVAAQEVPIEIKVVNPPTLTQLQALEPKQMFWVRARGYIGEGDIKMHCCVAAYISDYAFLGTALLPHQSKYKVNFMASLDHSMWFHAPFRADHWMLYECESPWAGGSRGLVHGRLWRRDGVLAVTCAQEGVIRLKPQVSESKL
UniProt P54227: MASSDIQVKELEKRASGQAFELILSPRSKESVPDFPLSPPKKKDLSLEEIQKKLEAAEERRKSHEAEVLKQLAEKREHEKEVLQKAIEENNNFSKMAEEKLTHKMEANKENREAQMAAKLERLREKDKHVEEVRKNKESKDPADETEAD
UniProt P59764: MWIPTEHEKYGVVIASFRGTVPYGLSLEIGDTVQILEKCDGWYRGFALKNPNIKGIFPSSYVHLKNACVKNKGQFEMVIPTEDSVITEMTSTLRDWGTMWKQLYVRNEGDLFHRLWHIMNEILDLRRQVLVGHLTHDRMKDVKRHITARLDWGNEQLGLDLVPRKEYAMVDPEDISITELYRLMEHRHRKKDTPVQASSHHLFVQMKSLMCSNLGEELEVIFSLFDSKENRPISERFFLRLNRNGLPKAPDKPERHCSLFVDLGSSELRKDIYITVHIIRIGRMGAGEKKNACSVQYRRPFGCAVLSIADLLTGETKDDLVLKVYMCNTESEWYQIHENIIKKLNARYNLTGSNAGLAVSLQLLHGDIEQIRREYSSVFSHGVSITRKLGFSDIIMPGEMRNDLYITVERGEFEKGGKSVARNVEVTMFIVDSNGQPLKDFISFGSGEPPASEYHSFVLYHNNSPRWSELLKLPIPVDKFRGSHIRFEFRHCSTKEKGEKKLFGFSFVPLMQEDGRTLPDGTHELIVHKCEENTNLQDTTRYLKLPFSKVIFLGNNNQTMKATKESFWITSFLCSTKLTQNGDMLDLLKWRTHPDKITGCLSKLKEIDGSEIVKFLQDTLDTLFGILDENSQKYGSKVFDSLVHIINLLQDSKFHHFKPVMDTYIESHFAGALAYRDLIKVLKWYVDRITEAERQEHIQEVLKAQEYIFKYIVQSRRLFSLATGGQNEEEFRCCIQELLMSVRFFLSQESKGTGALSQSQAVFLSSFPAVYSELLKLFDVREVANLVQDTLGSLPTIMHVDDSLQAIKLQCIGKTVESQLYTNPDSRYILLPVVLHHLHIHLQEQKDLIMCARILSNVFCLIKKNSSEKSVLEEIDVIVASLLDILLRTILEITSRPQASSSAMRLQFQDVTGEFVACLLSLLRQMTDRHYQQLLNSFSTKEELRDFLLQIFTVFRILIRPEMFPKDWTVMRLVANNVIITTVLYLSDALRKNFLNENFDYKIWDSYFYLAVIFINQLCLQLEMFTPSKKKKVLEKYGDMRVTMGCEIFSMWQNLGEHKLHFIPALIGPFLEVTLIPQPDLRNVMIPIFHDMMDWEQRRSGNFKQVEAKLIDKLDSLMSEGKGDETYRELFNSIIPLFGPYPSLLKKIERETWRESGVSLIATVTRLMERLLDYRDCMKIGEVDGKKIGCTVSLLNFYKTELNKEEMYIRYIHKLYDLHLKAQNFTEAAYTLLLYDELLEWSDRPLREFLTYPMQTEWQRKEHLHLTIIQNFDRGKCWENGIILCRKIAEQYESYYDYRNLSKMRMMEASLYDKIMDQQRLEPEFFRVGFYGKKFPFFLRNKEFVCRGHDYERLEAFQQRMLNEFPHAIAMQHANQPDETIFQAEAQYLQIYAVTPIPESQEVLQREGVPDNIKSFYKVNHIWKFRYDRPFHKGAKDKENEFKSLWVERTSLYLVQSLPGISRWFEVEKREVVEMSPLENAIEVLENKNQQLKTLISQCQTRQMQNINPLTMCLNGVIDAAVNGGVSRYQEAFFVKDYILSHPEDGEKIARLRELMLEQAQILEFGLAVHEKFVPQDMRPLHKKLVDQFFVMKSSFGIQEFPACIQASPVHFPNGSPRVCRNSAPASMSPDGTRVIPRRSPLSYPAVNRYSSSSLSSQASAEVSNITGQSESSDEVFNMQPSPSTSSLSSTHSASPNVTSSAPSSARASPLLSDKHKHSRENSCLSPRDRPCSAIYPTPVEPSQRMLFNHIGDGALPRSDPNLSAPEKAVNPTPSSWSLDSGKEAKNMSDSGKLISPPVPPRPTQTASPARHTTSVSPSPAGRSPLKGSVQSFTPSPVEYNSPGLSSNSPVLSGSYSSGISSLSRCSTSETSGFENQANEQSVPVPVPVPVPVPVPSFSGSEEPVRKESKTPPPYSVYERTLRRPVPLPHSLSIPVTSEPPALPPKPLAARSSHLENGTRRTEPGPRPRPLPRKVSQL
UniProt P58929: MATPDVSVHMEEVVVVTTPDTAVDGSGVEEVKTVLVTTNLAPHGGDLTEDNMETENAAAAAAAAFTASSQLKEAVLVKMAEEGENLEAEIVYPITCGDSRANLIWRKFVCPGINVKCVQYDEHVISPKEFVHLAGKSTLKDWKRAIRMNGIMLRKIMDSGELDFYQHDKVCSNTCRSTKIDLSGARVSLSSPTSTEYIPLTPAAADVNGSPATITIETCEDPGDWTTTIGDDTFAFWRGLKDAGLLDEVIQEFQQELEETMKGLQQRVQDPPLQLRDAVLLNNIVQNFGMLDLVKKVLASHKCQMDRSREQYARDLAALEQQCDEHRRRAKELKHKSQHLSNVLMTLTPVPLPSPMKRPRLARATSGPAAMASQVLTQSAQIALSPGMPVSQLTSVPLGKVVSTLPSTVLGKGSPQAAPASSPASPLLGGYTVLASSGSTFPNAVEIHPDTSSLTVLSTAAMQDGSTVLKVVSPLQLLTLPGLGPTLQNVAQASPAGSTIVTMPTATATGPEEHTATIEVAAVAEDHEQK

Compound in the experiment: CN[C@@H]1C[C@H]2O[C@@](C)([C@@H]1OC)n1c3ccccc3c3c4c(c5c6ccccc6n2c5c31)C(=O)NC4 [staurosporine]
Kind of experiment: log2 fold change of tryptic peptide abundance, ligand vs vehicle (limited proteolysis) (log2 ratio); higher = more trypsin-susceptible (destabilized). Particulars: ligand concentration: 20 uM; sample: mouse liver crude lysate; replicate design: treated separately.
In the case of “UniProt P58544 (peptide sequence: ADNAFMLLTQAR, peptide start residue: 183)”, the log2 fold change was 0.815. For “UniProt P58137 (peptide sequence: LKPQVSESKL, peptide start residue: 311)” the value was -0.0616.

“UniProt P54227 (peptide sequence: SHEAEVLK, peptide start residue: 63)”: the log2 fold change was -0.295. For “UniProt P59764 (peptide sequence: LISPPVPPRPTQTASPAR, peptide start residue: 1794)” the value was 0.169; for “UniProt P58929 (peptide sequence: EFVHLAGK, peptide start residue: 129)”, -0.215.

Values taken from the supplement of paper PMC12819154, “High-throughput peptide-centric local stability assay extends protein–ligand identification to membrane proteins, tissues and bacteria” (Nature Structural & Molecular Biology, 2025).
